In publication PMC12616069:
These are yes or no findings as the source states them, for the method shown. Binding seen in cells or lysates may run through a third protein. Binding calls can cover weak binding; strength is not graded here.

Protein sequences, listed by entry. Tags and fused reporters are not part of them. Lines headed by an entry give the natural chain unless they say otherwise; changes in a name come on top.
UniProt Q9UKE5: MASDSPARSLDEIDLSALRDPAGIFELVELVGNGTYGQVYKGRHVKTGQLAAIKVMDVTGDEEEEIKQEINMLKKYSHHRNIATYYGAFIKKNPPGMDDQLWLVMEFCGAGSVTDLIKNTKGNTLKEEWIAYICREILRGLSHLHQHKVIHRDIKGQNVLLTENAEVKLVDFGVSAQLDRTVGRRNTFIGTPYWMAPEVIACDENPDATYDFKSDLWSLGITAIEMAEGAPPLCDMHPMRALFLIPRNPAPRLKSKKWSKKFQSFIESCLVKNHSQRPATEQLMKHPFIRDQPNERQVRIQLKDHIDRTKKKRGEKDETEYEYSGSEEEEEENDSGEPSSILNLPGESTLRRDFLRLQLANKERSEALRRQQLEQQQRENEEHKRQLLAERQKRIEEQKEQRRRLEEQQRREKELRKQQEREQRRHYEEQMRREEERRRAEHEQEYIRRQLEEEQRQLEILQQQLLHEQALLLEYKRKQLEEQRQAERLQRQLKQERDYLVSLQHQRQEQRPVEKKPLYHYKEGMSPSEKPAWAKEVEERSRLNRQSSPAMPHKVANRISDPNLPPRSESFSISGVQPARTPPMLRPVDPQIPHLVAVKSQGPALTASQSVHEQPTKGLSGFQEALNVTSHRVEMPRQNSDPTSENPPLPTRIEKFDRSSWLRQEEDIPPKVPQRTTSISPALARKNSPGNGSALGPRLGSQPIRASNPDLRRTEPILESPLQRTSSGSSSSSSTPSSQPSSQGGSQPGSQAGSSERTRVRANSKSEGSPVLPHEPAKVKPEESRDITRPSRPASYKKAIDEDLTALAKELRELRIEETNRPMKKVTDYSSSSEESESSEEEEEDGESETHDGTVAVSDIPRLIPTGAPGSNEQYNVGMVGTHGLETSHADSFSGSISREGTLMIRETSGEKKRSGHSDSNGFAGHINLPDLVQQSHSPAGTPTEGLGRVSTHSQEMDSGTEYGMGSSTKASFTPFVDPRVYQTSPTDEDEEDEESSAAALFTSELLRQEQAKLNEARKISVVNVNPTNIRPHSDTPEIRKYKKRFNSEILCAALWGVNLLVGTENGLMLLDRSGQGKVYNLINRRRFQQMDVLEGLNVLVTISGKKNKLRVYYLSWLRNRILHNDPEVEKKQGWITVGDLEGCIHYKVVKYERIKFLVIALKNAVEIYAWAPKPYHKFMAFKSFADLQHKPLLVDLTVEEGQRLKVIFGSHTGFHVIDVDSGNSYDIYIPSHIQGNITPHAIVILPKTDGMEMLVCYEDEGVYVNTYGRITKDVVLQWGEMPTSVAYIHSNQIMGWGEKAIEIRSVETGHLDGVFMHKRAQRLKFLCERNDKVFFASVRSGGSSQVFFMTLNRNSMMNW
UniProt P06396: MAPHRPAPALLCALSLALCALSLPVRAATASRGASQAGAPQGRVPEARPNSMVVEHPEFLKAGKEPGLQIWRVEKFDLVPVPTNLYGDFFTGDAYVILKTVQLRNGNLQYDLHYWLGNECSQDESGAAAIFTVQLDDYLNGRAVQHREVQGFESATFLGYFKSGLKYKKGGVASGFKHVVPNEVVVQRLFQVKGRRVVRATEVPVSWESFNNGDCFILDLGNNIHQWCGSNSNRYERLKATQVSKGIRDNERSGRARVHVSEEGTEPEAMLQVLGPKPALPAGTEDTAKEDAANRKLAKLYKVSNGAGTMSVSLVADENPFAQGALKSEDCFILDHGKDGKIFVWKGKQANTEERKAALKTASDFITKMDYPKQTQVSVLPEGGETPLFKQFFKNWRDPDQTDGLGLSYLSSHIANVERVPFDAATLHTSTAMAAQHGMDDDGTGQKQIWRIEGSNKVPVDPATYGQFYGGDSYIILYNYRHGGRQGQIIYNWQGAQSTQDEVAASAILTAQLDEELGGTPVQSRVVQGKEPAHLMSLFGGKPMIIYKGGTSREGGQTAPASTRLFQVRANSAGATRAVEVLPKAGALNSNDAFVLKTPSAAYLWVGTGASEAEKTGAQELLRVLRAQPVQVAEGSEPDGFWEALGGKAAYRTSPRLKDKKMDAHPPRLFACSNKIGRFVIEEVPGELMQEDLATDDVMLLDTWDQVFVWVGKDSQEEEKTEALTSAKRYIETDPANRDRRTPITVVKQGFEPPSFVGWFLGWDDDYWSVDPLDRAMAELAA

Target: TRAF2 and NCK interacting kinase (human (endogenous in platelets)) (UniProt Q9UKE5)
Assay: co-IP; endogenous TNIK immunoprecipitated (1 ug TNIK antibody, protein A/G beads) from lysates of resting or collagen-stimulated (25 ug/mL, 3 min) human platelets prepared under non-aggregating conditions; 1% NP40 lysis buffer (150 mM NaCl, 10 mM Tris, 5 mM EDTA, pH 7.3); beads washed in 0.5% NP40 buffer; immunoblot of the precipitate

binding: binds
Substance: gelsolin (from UniProt P06396)
